In patent US9155761B2, “Method for the treatment of cancer” (UNIVERSITY COLLEGE CORK, NATIONAL UNIVERSITY OF IRELAND, …, priority 2009, dated 2015):
At least one compound was matched to its structure with a doubt left.

Test system: CT26 (Colorectal carcinoma cells)
Assay: CT26 colorectal carcinoma model, intratumoural Rapamycin / 5-FU
Type: in vivo, mice
Details: intratumoural thrice weekly; Rapamycin 0.6-2 mg/kg; 5-FU 20 mg/kg

CO[C@H]1C[C@@H]2CC[C@@H](C)[C@@](O)(O2)C(=O)C(=O)N2CCCC[C@H]2C(=O)O[C@H]([C@H](C)C[C@@H]2CC[C@@H](O)[C@H](OC)C2)CC(=O)[C@H](C)/C=C(\C)[C@@H](O)[C@@H](OC)C(=O)[C@H](C)C[C@H](C)/C=C/C=C/C=C/1C [rapamycin, Rapamycin]
survival: day beyond which no animal of the group is alive / final animal euthanized: ≤ 28 days
